This experiment has as its target p53 (wild-type, endogenous in U87 glioblastoma cells) (human (endogenous in U87)) (UniProt P04637). Description: co-IP; endogenous proteins; lysates of U87, LN215 and SNB19 cells incubated with anti-p53 monoclonal antibody (sc-126) at 4 °C overnight, protein A/G agarose 3 h, immunoblot.

The chains behind the UniProt entries cited, without tags or fusion partners.
UniProt O94953: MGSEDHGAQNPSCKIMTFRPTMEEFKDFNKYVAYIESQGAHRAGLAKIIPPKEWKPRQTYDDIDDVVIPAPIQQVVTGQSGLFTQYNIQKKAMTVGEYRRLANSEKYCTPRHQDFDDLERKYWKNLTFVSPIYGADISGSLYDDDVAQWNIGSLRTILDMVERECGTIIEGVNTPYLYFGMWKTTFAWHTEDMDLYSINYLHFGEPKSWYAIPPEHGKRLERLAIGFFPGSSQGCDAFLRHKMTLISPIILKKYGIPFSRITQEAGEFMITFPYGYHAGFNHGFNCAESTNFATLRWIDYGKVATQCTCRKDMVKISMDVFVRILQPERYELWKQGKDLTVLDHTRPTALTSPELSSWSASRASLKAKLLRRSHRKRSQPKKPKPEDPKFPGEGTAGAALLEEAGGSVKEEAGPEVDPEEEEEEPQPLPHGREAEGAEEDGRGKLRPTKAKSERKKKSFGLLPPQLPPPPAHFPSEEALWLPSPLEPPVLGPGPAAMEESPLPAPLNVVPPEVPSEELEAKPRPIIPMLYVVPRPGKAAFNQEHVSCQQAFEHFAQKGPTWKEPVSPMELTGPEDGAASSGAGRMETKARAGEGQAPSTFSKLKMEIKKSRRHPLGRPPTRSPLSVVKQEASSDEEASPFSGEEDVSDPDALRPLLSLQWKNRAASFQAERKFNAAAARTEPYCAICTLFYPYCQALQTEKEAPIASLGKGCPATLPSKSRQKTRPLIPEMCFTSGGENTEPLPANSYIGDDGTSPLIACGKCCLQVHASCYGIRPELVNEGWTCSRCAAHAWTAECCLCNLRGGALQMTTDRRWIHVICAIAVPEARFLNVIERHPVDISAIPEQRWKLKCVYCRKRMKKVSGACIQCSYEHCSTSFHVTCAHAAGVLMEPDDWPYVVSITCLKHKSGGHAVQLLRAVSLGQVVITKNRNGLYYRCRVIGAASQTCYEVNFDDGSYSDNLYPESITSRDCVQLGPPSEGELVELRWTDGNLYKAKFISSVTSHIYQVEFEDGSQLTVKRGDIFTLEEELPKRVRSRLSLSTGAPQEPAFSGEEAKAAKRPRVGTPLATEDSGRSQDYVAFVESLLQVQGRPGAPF

These are yes or no findings as the source states them, for the method shown. Binding seen in cells or lysates may run through a third protein.

Consider “KDM4B (endogenous in glioblastoma cells) (from UniProt O94953 1-1096)”, for which the binding result is “no binding”.

Values taken from article PMC7814060.
